Values of other authors in patent US6509043B1, “Composition comprising soy protein, dietary fibres and a phytoestrogen compound and use thereof in the prevention and/or treatment of pulmonary diseases” (Nutri Pharma ASA, priority 2001, dated 2003).
At least one compound was matched to its structure with a doubt left.

System: estrogenic effect
Conditions: in vitro; reported by Knight (Maturitas 22, 167-175 (1995))

Compound: C[C@]12CC[C@@H]3c4ccc(O)cc4CC[C@H]3[C@@H]1CC[C@@H]2O [estradiol]
- relative estrogenic potency as compared to estradiol (relative potency of 100): 100
